In publication PMC12519062:
No constants are given. Whether binding was seen depends on the method and setting. Some entries that bind do so weakly or less than the wild type. Tags and fused reporters may be left off the sequences shown.

Target: His12‐CPEB3 [126–169] (mouse) (UniProt Q7TN99)
Test: thioflavin T fluorescence + transmission electron microscopy; amyloid fibril formation: 3 mM protein in 50 mM MES pH 5.5 with 3 M Gu-HCl diluted 60-fold into 50 mM MES pH 5.5 (50 uM final), vortexed at 37 °C for 96 h; ThT fluorescence, TEM of the collected aggregates (CD too for the CPEB3 fragment); both purified

SFFQGITPVNGTMLFQNFPHHVNPVFGGTFSPQIGLAQTQHHQQ (domain or fragment, UniProt Q7TN99 126-169) [His12‐CPEB3 [126–169]] was tested, and the binding was “binds”.
